The values below come from PMC5520843.

The experiment has as its target Gal4BD-OsUbc13 (rice (Oryza sativa L. cv. Japonaca)). In words: two-hybrid; yeast PJ69-4A; Gal4BD-OsUbc13 (pGBT9 derivative) with Gal4AD fusions of Uevs (pGAD424 derivatives); growth by the P_GAL1-HIS3 reporter on minimal medium with up to 5 mM 3-AT; plates incubated for 3 days.

No constants are given. Whether binding was seen depends on the method and setting. Binding calls can cover weak binding; strength is not graded here.

B1: Gal4AD-yMms2 (protein, UniProt P53152 1-137)
chain: MSKVPRNFRLLEELEKGEKGFGPESCSYGLADSDDITMTKWNGTILGPPHSNHENRIYSLSIDCGPNYPDSPPKVTFISKINLPCVNPTTGEVQTDFHTLRDWKRAYTMETLLLDLRKEMATPANKKLRQPKEGETF
With B1, the binding result is “binds”.
